Data on 22 sequences can be found in patent publication US6492137B1, “Response element compositions and assays employing same” (The Salk Institute for Biological Studies, priority 1989, dated 2002).

For some assays here: No signal at the amounts used counts as a negative. For some assays here: Protein sequences can lack the tags named with them. For some assays here: A weaker result is weaker than the reference pair of the same experiment. For some assays here: Where cells or extracts were used, other partners may take part. For some assays here: For at least one entry, the source does not settle the construct or the ends of the probe.

Data set [1] addresses T1, Retinoic acid receptor alpha (RARα), in CV-1 cells (Homo sapiens) (UniProt P10276).
T1 sequence (looked up, limits assumed): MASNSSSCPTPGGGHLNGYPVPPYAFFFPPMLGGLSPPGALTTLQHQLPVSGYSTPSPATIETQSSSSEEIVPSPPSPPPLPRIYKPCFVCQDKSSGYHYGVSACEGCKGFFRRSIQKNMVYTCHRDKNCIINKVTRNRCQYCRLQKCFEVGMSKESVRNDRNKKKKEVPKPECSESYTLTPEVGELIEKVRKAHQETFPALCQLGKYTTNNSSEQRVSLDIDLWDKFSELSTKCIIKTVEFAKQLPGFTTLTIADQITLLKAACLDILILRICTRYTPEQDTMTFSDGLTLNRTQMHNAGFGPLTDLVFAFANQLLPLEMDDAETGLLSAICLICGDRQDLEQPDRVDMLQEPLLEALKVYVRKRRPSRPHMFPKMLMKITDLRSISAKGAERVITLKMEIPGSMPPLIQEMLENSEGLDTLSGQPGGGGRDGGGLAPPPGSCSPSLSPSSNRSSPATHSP
Briefly: activity in cells. Particulars: protein in cells, protein details: RSV or pRS expression vector, only the site is given.

The target in data set [2] is T2, Thyroid hormone receptor beta (TRβ), in CV-1 cells (Homo sapiens) (UniProt P10828).
T2 sequence (looked up, limits assumed): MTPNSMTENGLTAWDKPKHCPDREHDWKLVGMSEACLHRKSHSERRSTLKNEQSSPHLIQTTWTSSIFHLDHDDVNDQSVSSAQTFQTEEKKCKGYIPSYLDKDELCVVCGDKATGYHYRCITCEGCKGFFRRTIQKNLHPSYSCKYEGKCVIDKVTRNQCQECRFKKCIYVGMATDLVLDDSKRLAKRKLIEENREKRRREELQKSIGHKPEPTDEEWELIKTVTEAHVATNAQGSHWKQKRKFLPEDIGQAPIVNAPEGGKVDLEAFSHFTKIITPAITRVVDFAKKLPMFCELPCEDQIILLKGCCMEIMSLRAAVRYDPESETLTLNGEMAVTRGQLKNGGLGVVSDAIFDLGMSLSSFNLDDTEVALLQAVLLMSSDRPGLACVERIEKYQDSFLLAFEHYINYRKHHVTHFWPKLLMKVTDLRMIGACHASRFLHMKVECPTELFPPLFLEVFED
The data set can be described thus: activity in cells. Particulars: protein in cells, protein details: pRShTRβ, only the site is given.

Data set [3] deals with T3, Thyroid hormone receptor beta (TRβ) (Homo sapiens) (UniProt P10828).
T3 sequence (looked up, limits assumed): T2 sequence (looked up, limits assumed)
The data set can be described thus: EMSA. Conditions: protein in a lysate after overexpression, protein details: pCMX-hTRβ transfected COS cell extract, label: 32P. In general terms: In EMSA bound probe runs differently from free probe, usually more slowly.

Data set [4] has as its target T4, Retinoic acid receptor alpha (RARα) (Homo sapiens) (UniProt P10276).
T4 sequence (looked up, limits assumed): T1 sequence (looked up, limits assumed)
Briefly: EMSA. Particulars: protein in a lysate after overexpression, protein details: pCMX-hRARα transfected COS cell extract, label: 32P.

For data set [5], the target named is T3, Thyroid hormone receptor beta (TRβ) (Homo sapiens). Briefly: competition with a labelled probe. Conditions: protein in a lysate after overexpression, protein details: pCMX-hTRβ transfected COS cell extract.
Data set [6] deals with T4, Retinoic acid receptor alpha (RARα) (Homo sapiens). The data set can be described thus: competition with a labelled probe. Conditions: protein in a lysate after overexpression, protein details: pCMX-hRARα transfected COS cell extract.
Data set [7] concerns F9 stem cell endogenous βRARE-binding activity (RAR-like) (Mus musculus). Briefly: EMSA. Conditions: pattern identical to RARα-transfected COS extract; protein in an extract; protein details: F9 teratocarcinoma whole cell extract; label: 32P.
Data set [8] addresses T5, Vitamin D receptor (VDR), in CV-1 cells (Homo sapiens) (UniProt P11473).
T5 sequence (looked up, limits assumed): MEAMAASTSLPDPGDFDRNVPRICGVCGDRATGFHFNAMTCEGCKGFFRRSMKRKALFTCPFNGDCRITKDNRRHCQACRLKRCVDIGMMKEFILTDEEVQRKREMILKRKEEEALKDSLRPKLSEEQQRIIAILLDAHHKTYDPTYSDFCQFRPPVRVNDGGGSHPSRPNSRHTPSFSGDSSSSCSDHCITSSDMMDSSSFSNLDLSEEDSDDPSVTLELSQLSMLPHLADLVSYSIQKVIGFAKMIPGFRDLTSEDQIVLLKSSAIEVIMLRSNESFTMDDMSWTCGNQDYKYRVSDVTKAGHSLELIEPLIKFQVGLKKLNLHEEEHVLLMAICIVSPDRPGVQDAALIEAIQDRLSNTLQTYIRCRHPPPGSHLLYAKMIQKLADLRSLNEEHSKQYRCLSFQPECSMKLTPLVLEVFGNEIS
The data set can be described thus: activity in cells. Particulars: completely inactive, protein in cells, protein details: pRShVDR, only the site is given.

For data set [9], the target named is T6, Vitamin D receptor (VDR) (Homo sapiens) (UniProt P11473).
T6 sequence (looked up, limits assumed): T5 sequence (looked up, limits assumed)
The data set can be described thus: EMSA. Particulars: COS extract; protein in a lysate after overexpression; protein details: pCMX-hVDR transfected COS cell extract; label: 32P.

[10] abbreviates: half site, functional only with cotransfected RAR, variant of βRE1.
The mark [11] stands for this setting: described as high affinity site.
The mark [12] stands for this setting: 50-fold excess did not compete MHC-N probe, variant of MHC-N.
Where [13] appears, read: poor competitor, variant of MHC-N.
[14] abbreviates: clear activity, attributed to receptor overexpression.

In the case of “AAGCTTAAGGGTTCACCGAGCTT (double strand) [βRE5]”, in [1] (setting [10]), the “activity on this sequence” value is on record as “active”.
Still for that read-out and setting: next, “AAGCTTCGAAAGTTCACTCGCATAGCTT (double strand) [βRE4]”: “active”.
Consider “AGCTAGGTAAGATCAGGTAAGTAGCT (double strand) [rGH21]”, for which, in data set [2] (no T3 induction), the “activity on this sequence” value is “not active”. Further, the binding result in data set [3] (binds very poorly) is “binds more weakly”; in data set [4] (no appreciable binding), “no binding”.
As to “AGCTCAGGGTCATTTCAGGTCCTTGAAGCT (double strand) [MLV-LTR TRE]”, the “activity on this sequence” value in [2] (T3 inducible) is reported as “active”. In addition, the binding result in [3] (setting [11]) is reported as “binds”; in data set [4] (no appreciable binding), “no binding”.
Consider “AGCTCCTTGGCTCTGGAGGTGACAGGAGGACAGCAGCT (double strand) [MHC-L]”, for which the “activity on this sequence” value in [2] (T3 responsive) is recorded as “active”.
With “AGCTCTCTGGAGGTGACAGGAAGCT (double strand) [MHC-S]”, the “activity on this sequence” value in data set [2] (no T3 response) is reported as “not active”.
Take “AGCTGGAAATGACAGGAGGACAGCAAGCT (double strand) [M1]”: the “activity on this sequence” value in [2] (silent to T3, variant of MHC-N) is “not active”. Besides, the binding result in data set [5] (setting [12]) was “no binding”.
As for “AGCTGGAGGTGAACAGGAGGACAGCAAGCT (double strand) [MHC+1]”, the binding result in data set [5] (setting [13]) is reported as “binds more weakly”; in [6] (much weaker affinity than MHC-R, variant of MHC-N), “binds more weakly”.
Turning to “AGCTGGAGGTGAACAGGAGGTCAGCAAGCT (double strand) [MHC-R]”, the activity on this sequence (fold induction) in data set [2] (T3 100 nM, CV-1, variant of MHC-N, counted as no effect) amounted to 1.3. In addition, the binding result in data set [5] (setting [13]) was “binds more weakly”; in data set [6] (effective competitor of βRARE probe, comparable to TREp, variant of MHC-N), “binds”.
As to “AGCTGGAGGTGACAGGAAAACAGCAAGCT (double strand) [M3]”, the “activity on this sequence” value in data set [2] (silent to T3, variant of MHC-N) is “not active”. Besides, in [5] (setting [12]), the binding result is reported as “no binding”.
Turning to “AGCTGGAGGTGACAGGAGGACAGCAAGCT (double strand) [MHC-N]”, the “activity on this sequence” value in data set [1] (no RA response) was “not active”. Further, the binding result is given as “binds” in data set [3] (COS extract, poly dI/dC, 80 mM KCl, room temperature, self-competes at 50-fold excess) and “no binding” in [4].
“AGCTGGAGGTGACAGGAGGTCAGCAAGCT (double strand) [MHC-T]”: the binding result in data set [5] (notably better competitor than wild type, variant of MHC-N) is reported as “binds”; in data set [6] (fails to compete efficiently, much weaker affinity than MHC-R, variant of MHC-N) it was “binds more weakly”.
Consider “AGCTGGAGGTGACGAAAGGACAGCAAGCT (double strand) [M2]”, for which the “activity on this sequence” value in data set [2] (T3 response retained though impaired, variant of MHC-N) is “less active”. Further, the binding result in [5] (50-fold excess competed MHC-N probe, variant of MHC-N) was “binds”.
With “AGCTGGGGTTAGGGGAGGACAGTAAGCT (double strand) [malic enzyme TRE]”, the “activity on this sequence” value in data set [2] (T3 responsive) is given as “active”. Moreover, the results for the binding result in [3] (setting [11]) and in data set [4] (no appreciable binding) were “binds” and “no binding”, respectively.
Take “AGCTTAAGGGTTCACCGAAAGTTCACTCGCATAGCT (double strand) [βRARE]”: the binding result is recorded as “binds more weakly” in [3] (weak yet detectable over background, also poor competitor (p130)); “binds” in data set [4] (dramatically enhanced signal); “binds” in data set [7].
Take “AGCTTCAGAACAAGGAGAACAGAGAGCT (double strand) [GDR-3]”: the “activity on this sequence” value in data set [8] (variant of DR-3) is reported as “not active”; in data set [2] (completely inactive, variant of DR-3), “not active”.
Turning to “AGCTTCAGAACACAGGAGAACAGAGAGCT (double strand) [GDR-4]”, the “activity on this sequence” value in data set [8] (variant of DR-4) is reported as “not active”; in [2] (completely inactive, variant of DR-4), “not active”.
With “AGCTTCAGGTCAAGGAGGTCAGAGAGCT (double strand) [DR-3]”, the “activity on this sequence” value in [1] (setting [14]) was “less active”. Besides, the binding result in data set [9] is given as “binds”.
For the sequence “AGCTTCAGGTCACAGGAGGTCAGAGAGCT (double strand) [DR-4]”, the “activity on this sequence” value in data set [1] (setting [14]) is “less active”. Further, the binding result in data set [3] (COS extract) is listed as “binds”.
On to “AGCTTCAGGTCACCAGGAGGTCAGAGAGCT (double strand) [DR-5]”, for which the binding result in data set [4] (COS extract) was “binds”.
Take “AGCTTCAGGTCATGACCTGAGAGCT (double strand) [TREp]”: the binding result in data set [5] (efficient competitor) and in [6] (effective competitor of βRARE probe) was “binds” each time.
For the sequence “AGCTTGAGGTGACAGGAGGACAGCAGCT (double strand) [MHC-D]”, the “activity on this sequence” value in data set [2] (full T3 response) was “active”.
